PubChem BioAssay AID1053209, Peter MacCallum Cancer Centre | 2014
In all, the deposit lists about 1,580 reagents; shown is a random part of them. 207 of them (13%) count as active. 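Rows are single siRNAs; four siRNAs per gene were tested, a gene counting as confirmed only when at least two agree.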 The numbers tell different reagents against one gene apart.

Purpose: 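Gene losses that combine with doxorubicin to kill mouse bone cancer cells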 (follow-up of hits)
Cell system: mouse primary osteosarcoma cells
Knock-down reagent: single siRNA against mouse genes, 25 nM (text also states 40 nM)
Timing: about 120 h (48 h before drug, then 72 h with drug)
Treatment: doxorubicin 100 nM (about IC30-40), added 48 h after transfection, for 72 h
Measured: 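Viability measured by ATP luminescence with and without doxorubicin, each replicate scaled to non-targeting siRNA NT1, averaged over two replicates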
Reading the numbers: viability with doxorubicin, vs NT1: higher = more viable cells under doxorubicin; viability ratio, doxorubicin over no drug: higher = less sensitisation to doxorubicin; viability without drug, vs NT1: higher = more viable cells without drug
Call rule: 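Active when doxorubicin viability is at most 0.7 of NT1 and drug-free viability lies between 0.7 and 1.1, class LC dox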

no.	gene symbol	reagent	combined effect class	viability with doxorubicin, vs NT1	viability ratio, doxorubicin over no drug	viability without drug, vs NT1	activity call
1	Mpp4	1	normal viability with and without drug	0.94	0.92	1.02	inactive
2	Mpp4	2	low viability only with doxorubicin; normal without drug	0.67	0.78	0.86	active
3	Mpp4	3	normal viability with and without drug	1.07	1.04	1.03	inactive
4	Mpp4	4	normal viability with and without drug	1.08	1.05	1.03	inactive
5	Rab40b (Rab40B, member RAS oncogene family)	1	normal viability with and without drug	1.06	1.06	1	inactive
6	Rab40b (Rab40B, member RAS oncogene family)	2	normal viability with and without drug	1.06	1.1	0.96	inactive
7	Rab40b (Rab40B, member RAS oncogene family)	3	normal viability with and without drug	0.84	0.92	0.91	inactive
8	Rab40b (Rab40B, member RAS oncogene family)	4	normal viability with and without drug	0.98	1	0.98	inactive
9	Mphosph10	1	normal viability with and without drug	0.81	0.94	0.86	inactive
10	Mphosph10	2	normal viability with and without drug	0.97	1.08	0.9	inactive
11	Mphosph10	3	normal viability with and without drug	0.81	0.9	0.9	inactive
12	Mphosph10	4	normal viability with and without drug	0.92	0.94	0.98	inactive
13	Il11ra2 (interleukin 11 receptor subunit alpha 2)	1	normal viability with and without drug	0.92	0.92	1	inactive
14	Il11ra2 (interleukin 11 receptor subunit alpha 2)	2	normal viability with and without drug	1	1.11	0.9	inactive
15	Il11ra2 (interleukin 11 receptor subunit alpha 2)	3	normal viability with and without drug	1.02	1.02	1	inactive
16	Il11ra2 (interleukin 11 receptor subunit alpha 2)	4	normal viability with and without drug	0.82	0.89	0.92	inactive
17	Recql4 (RecQ protein-like 4)	1	normal viability with and without drug	0.78	0.85	0.92	inactive
18	Recql4 (RecQ protein-like 4)	2	normal viability with and without drug	1.04	1.18	0.88	inactive
19	Recql4 (RecQ protein-like 4)	3	normal viability with and without drug	1.04	1.11	0.94	inactive
20	Recql4 (RecQ protein-like 4)	4	normal viability with and without drug	1.04	1	1.04	inactive
21	Rps11 (ribosomal protein S11)	1	low viability with and without drug	0.25	0.6	0.42	inactive
22	Rps11 (ribosomal protein S11)	2	low viability with and without drug	0.57	0.89	0.64	inactive
23	Rps11 (ribosomal protein S11)	3	low viability with and without drug	0.18	0.43	0.42	inactive
24	Rps11 (ribosomal protein S11)	4	low viability with and without drug	0.17	0.42	0.4	inactive
25	Pten (phosphatase and tensin homolog)	1	high viability only without drug	1.08	0.85	1.27	inactive
26	Pten (phosphatase and tensin homolog)	2	normal viability with and without drug	0.9	0.87	1.03	inactive
27	Pten (phosphatase and tensin homolog)	3	high viability only with doxorubicin	1.12	1.06	1.06	inactive
28	Pten (phosphatase and tensin homolog)	4	high viability only without drug	1.06	0.96	1.1	inactive
29	Rps26 (ribosomal protein S26)	1	normal viability with and without drug	1.07	1.07	1	inactive
30	Rps26 (ribosomal protein S26)	2	low viability with and without drug	0.24	0.52	0.46	inactive
31	Rps26 (ribosomal protein S26)	3	low viability with and without drug	0.36	0.75	0.48	inactive
32	Rps26 (ribosomal protein S26)	4	normal viability with and without drug	0.97	1.01	0.96	inactive
33	Rps27 (ribosomal protein S27)	1	low viability only with doxorubicin; normal without drug	0.52	0.65	0.8	active
34	Rps27 (ribosomal protein S27)	2	normal viability with and without drug	0.76	0.9	0.84	inactive
35	Rps27 (ribosomal protein S27)	3	normal viability with and without drug	0.84	0.89	0.94	inactive
36	Rps27 (ribosomal protein S27)	4	low viability only with doxorubicin; normal without drug	0.46	0.63	0.73	active
37	Polr2k (polymerase (RNA) II (DNA directed) polypeptide K)	1	low viability only with doxorubicin; normal without drug	0.7	0.71	0.98	active
38	Polr2k (polymerase (RNA) II (DNA directed) polypeptide K)	2	normal viability with and without drug	0.82	1.01	0.81	inactive
39	Polr2k (polymerase (RNA) II (DNA directed) polypeptide K)	3	normal viability with and without drug	0.92	0.96	0.96	inactive
40	Polr2k (polymerase (RNA) II (DNA directed) polypeptide K)	4	normal viability with and without drug	0.86	0.9	0.96	inactive
41	Romo1 (reactive oxygen species modulator 1)	1	normal viability with and without drug	0.75	0.74	1.02	inactive
42	Romo1 (reactive oxygen species modulator 1)	2	normal viability with and without drug	1.02	0.98	1.04	inactive
43	Romo1 (reactive oxygen species modulator 1)	3	normal viability with and without drug	0.81	0.92	0.88	inactive
44	Romo1 (reactive oxygen species modulator 1)	4	normal viability with and without drug	1.05	1.12	0.94	inactive
45	Psmb2 (proteasome (prosome, macropain) subunit, beta type 2)	1	low viability with and without drug	0.13	0.41	0.32	inactive
46	Psmb2 (proteasome (prosome, macropain) subunit, beta type 2)	2	normal viability with and without drug	0.8	0.91	0.88	inactive
47	Psmb2 (proteasome (prosome, macropain) subunit, beta type 2)	3	low viability with and without drug	0.35	0.54	0.65	inactive
48	Psmb2 (proteasome (prosome, macropain) subunit, beta type 2)	4	normal viability with and without drug	0.92	1.05	0.88	inactive
49	Rps15a (ribosomal protein S15A)	1	low viability with and without drug	0.36	0.68	0.53	inactive
50	Rps15a (ribosomal protein S15A)	2	low viability with and without drug	0.54	0.98	0.55	inactive
51	Rps15a (ribosomal protein S15A)	3	low viability with and without drug	0.22	0.79	0.28	inactive
52	Rps15a (ribosomal protein S15A)	4	low viability with and without drug	0.29	0.67	0.43	inactive
53	Rpl3 (ribosomal protein L3)	1	low viability with and without drug	0.26	0.81	0.32	inactive
54	Rpl3 (ribosomal protein L3)	2	low viability with and without drug	0.42	0.76	0.55	inactive
55	Rpl3 (ribosomal protein L3)	3	low viability with and without drug	0.28	0.82	0.34	inactive
56	Rpl3 (ribosomal protein L3)	4	low viability with and without drug	0.26	0.54	0.48	inactive
57	Rhbdl1 (rhomboid like 1)	1	normal viability with and without drug	0.72	0.72	1	inactive
58	Rhbdl1 (rhomboid like 1)	2	normal viability with and without drug	0.85	0.96	0.89	inactive
59	Rhbdl1 (rhomboid like 1)	3	normal viability with and without drug	1.02	0.94	1.09	inactive
60	Rhbdl1 (rhomboid like 1)	4	normal viability with and without drug	1.04	1.13	0.92	inactive
